# Source: the supplement of paper PMC6411743
# Amino acid sequences for entries named in this document (tags omitted). A change or cut given only in a name is not applied to a line headed by its entry.
# UniProt Q9Y2T7, whole entry: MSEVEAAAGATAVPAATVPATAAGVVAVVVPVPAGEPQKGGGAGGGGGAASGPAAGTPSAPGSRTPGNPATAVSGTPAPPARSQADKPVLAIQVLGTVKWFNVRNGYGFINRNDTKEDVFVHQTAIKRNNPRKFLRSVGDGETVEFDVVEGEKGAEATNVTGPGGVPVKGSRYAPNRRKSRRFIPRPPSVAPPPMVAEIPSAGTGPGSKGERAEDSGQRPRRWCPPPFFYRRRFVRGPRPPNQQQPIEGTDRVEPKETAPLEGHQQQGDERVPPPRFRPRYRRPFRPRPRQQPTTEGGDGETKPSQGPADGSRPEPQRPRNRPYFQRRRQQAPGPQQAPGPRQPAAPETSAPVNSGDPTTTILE
# UniProt Q9Y547: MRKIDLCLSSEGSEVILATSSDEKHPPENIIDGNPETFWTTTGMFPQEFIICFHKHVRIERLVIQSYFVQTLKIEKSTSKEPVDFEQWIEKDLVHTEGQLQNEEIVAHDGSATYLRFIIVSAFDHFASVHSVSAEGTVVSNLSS
# UniProt Q9Y6Q9, whole entry, looked up: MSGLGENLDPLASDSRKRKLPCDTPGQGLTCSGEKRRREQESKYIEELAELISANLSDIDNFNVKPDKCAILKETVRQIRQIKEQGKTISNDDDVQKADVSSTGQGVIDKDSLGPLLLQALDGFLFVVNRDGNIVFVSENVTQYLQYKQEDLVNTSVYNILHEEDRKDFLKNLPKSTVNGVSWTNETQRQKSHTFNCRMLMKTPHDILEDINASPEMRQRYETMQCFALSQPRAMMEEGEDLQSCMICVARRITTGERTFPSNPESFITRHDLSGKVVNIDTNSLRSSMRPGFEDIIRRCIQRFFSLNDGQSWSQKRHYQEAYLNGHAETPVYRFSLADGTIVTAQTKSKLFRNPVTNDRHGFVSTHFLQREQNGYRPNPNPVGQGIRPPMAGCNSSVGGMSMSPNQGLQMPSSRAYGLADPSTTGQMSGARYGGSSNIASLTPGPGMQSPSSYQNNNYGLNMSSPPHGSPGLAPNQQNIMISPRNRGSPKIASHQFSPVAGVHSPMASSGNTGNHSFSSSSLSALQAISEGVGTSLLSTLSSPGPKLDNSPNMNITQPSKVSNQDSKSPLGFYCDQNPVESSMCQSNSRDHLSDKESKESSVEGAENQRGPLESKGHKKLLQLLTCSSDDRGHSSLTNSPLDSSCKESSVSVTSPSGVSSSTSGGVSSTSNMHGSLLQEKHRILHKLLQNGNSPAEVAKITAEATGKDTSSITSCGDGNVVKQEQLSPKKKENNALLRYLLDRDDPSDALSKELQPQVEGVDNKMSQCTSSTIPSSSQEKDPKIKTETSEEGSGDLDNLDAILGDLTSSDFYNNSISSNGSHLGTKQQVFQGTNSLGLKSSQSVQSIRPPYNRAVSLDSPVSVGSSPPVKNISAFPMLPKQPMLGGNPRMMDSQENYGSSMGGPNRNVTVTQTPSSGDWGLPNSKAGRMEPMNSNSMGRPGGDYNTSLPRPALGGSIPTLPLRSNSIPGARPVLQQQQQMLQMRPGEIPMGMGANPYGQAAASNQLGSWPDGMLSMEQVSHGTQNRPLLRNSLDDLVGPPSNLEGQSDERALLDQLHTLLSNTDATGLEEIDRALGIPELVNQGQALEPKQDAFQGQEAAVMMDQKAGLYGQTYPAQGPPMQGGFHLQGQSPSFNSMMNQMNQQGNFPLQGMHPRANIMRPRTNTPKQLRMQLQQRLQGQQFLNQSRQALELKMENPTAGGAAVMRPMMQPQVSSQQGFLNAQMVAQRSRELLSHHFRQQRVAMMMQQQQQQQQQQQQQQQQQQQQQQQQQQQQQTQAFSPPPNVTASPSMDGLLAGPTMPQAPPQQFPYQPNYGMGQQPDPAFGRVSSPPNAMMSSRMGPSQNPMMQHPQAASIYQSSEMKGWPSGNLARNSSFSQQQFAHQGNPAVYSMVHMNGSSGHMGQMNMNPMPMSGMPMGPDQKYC
# UniProt Q9Y2T2: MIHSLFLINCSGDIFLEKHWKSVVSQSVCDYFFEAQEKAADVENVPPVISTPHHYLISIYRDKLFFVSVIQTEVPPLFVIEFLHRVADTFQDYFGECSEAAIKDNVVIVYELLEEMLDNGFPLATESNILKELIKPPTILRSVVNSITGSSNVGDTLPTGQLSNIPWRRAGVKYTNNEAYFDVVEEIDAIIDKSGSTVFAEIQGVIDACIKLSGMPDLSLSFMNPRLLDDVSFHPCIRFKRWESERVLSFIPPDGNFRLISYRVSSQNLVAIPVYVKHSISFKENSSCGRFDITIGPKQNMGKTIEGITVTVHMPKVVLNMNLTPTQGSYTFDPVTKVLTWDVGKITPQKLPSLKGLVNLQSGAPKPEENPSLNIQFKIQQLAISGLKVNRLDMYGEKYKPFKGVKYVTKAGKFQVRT
# UniProt Q9Y2W1: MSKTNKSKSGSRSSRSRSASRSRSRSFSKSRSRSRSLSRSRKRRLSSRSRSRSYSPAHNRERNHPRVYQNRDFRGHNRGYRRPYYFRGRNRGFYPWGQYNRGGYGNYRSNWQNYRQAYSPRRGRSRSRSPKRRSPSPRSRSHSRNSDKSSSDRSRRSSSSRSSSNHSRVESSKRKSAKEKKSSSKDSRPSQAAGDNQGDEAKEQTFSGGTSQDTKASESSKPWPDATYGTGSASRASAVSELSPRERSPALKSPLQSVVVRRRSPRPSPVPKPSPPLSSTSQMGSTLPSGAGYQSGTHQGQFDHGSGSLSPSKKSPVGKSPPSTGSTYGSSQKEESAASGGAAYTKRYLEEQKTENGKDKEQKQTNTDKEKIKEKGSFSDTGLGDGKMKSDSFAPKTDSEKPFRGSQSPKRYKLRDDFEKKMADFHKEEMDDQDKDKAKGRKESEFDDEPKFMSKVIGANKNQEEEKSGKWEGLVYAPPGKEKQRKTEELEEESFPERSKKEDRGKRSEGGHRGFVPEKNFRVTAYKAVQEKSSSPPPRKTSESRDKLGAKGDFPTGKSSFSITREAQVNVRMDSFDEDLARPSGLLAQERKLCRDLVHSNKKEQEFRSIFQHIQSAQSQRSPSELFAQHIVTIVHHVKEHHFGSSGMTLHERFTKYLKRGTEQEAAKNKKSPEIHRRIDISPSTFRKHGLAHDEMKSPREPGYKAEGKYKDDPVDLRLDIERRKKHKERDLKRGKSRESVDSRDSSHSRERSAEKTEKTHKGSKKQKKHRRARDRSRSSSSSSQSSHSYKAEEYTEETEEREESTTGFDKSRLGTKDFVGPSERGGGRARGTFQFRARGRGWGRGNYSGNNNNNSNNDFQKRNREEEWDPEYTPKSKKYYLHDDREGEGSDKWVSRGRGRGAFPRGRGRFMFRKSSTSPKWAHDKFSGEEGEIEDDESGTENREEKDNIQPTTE
# UniProt Q9Y289: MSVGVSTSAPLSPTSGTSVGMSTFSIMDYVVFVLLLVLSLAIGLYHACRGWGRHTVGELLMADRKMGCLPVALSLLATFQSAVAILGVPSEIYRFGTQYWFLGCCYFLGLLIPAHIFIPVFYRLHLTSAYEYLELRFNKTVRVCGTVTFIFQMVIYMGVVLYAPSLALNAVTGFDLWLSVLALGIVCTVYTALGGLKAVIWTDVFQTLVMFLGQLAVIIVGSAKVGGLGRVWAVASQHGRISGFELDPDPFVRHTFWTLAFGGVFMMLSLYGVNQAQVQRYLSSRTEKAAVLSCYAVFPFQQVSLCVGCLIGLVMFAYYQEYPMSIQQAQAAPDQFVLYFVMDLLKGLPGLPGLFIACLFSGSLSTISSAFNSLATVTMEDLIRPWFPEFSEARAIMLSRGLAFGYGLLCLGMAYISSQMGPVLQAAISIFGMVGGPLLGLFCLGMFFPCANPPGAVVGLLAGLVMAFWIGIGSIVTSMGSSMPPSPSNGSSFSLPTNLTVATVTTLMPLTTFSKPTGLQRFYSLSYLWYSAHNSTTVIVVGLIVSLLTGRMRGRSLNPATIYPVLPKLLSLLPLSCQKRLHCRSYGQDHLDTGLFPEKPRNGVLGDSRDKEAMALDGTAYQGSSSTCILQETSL
# UniProt Q9Y4B6: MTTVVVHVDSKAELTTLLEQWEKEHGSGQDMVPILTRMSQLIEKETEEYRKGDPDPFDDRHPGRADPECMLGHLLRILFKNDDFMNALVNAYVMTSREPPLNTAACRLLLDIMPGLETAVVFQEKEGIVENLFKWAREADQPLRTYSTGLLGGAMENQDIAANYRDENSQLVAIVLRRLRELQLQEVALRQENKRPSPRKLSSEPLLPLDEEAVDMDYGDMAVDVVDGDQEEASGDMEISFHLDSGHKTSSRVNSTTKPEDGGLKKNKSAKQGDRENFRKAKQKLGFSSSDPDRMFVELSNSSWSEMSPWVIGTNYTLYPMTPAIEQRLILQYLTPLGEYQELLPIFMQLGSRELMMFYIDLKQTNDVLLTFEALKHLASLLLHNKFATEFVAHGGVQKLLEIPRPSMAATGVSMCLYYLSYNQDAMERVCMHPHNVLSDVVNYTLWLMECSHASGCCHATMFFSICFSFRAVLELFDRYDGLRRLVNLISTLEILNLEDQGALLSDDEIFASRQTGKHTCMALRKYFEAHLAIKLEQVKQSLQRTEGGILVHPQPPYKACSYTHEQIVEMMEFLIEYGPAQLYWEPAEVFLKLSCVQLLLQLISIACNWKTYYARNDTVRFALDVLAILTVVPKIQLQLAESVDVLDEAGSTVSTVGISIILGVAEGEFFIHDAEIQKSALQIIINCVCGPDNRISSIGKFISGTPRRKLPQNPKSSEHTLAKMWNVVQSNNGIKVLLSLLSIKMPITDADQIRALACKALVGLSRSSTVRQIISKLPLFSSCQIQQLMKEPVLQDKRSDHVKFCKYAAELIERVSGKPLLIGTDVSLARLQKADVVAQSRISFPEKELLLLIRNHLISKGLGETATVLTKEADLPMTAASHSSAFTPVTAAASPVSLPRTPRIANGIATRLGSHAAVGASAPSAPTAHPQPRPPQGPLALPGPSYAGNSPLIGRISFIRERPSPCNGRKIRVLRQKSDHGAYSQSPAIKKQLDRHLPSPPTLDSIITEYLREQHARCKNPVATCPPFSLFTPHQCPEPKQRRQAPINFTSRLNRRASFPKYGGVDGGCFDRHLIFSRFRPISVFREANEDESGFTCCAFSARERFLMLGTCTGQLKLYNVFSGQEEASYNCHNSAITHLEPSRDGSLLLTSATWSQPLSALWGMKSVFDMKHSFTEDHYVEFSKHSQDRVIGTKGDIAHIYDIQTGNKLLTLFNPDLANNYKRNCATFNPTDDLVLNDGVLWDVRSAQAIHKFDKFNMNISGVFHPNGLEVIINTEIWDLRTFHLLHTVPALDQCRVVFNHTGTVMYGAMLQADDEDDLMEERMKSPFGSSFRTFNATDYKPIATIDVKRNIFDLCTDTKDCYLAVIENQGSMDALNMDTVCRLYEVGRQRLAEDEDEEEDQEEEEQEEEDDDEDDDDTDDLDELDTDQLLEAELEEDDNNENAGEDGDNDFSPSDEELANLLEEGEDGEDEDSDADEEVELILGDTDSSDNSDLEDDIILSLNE
# UniProt Q9Y259: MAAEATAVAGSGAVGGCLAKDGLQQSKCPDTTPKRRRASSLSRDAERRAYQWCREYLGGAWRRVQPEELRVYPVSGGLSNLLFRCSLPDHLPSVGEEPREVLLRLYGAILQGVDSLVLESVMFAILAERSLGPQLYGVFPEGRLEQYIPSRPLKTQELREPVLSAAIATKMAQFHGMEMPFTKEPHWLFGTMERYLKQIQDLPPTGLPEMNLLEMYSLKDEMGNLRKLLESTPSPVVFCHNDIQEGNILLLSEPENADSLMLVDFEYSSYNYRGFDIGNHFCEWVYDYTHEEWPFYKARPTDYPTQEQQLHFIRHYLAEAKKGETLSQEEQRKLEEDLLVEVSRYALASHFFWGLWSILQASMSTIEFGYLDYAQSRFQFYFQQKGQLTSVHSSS
# UniProt Q9Y679: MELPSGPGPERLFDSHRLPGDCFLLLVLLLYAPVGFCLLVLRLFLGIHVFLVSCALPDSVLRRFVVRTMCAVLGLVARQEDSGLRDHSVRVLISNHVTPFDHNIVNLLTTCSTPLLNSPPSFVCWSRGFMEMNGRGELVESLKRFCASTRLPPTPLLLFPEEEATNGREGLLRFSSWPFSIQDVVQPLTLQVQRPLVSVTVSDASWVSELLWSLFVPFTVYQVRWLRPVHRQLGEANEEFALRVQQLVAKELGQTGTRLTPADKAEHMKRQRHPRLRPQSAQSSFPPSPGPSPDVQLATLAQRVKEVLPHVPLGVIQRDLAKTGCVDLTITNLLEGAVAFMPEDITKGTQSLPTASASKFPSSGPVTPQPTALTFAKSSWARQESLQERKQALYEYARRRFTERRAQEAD
# UniProt Q9Y394: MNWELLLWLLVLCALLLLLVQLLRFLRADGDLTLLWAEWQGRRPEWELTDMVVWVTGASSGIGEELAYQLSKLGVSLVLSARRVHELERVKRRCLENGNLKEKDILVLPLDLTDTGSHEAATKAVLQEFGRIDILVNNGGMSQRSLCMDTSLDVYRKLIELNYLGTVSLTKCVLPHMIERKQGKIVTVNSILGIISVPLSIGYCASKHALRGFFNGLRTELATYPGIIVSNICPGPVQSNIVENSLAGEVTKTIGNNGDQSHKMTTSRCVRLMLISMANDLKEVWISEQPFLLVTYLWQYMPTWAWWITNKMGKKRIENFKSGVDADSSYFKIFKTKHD
# ± gives the standard deviation of the averaged measurements. This is one part of the list.
# Compound: Nc1nc2c(ncn2[C@@H]2O[C@H](COP(=O)(O)OP(=O)(O)OP(=O)(O)O)[C@@H](O)[C@H]2O)c(=O)[nH]1 [guanosine triphosphate]
# Assay: NP40-soluble protein abundance relative to vehicle (solubility fold change) (ratio); higher = more soluble protein in presence of GTP
# Summary of the method: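 Eight concentrations, 0.1 to 10 mM, were tested on Jurkat crude lysate for 10 min at room temperature and then 3 min at 37 °C, in three independent experiments. The lysate was solubilised with 0.8% NP40 and benzonase, ultracentrifuged, and the supernatant TMT-labelled for LC-MS/MS. Each value is the fold change against the detergent-processed vehicle in its own replicate, from vsn-normalised intensities.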
Target,NP40-soluble protein abundance (concentration: 0.1mM),NP40-soluble protein abundance (concentration: 0.5mM),NP40-soluble protein abundance (concentration: 1mM),NP40-soluble protein abundance (concentration: 2mM),NP40-soluble protein abundance (concentration: 4mM),NP40-soluble protein abundance (concentration: 6mM),NP40-soluble protein abundance (concentration: 8mM),NP40-soluble protein abundance (concentration: 10mM)
YBX2 (UniProt Q9Y2T7),0.954 ± 0.17,0.984 ± 0.14,1.01 ± 0.088,1.02 ± 0.13,1.04 ± 0.17,1.01 ± 0.13,1.06 ± 0.095,1.09 ± 0.11
SUGT1 (UniProt Q9Y2Z0),0.98 ± 0.031,0.958 ± 0.044,0.926 ± 0.03,0.88 ± 0.029,0.87 ± 0.046,0.877 ± 0.046,0.899 ± 0.04,0.829 ± 0.079
UniProt Q9Y6K9 and related entries,0.9639 ± 0.0018,0.949 ± 0.027,1.01 ± 0.043,0.984 ± 0.017,0.982 ± 0.03,0.999 ± 0.038,1.05 ± 0.026,1.06 ± 0.045
UniProt Q9Y6X9 and related entries,0.982 ± 0.076,0.972 ± 0.1,0.982 ± 0.083,0.989 ± 0.092,0.984 ± 0.046,0.944 ± 0.038,1.05 ± 0.042,1.02 ± 0.042
UniProt Q9Y3C4 and related entries,1.02 ± 0.058,1.04 ± 0.12,0.964 ± 0.1,0.989 ± 0.028,0.98 ± 0.052,0.954 ± 0.085,0.918 ± 0.056,0.941 ± 0.017
HSPB11 (UniProt Q9Y547),1.02 ± 0.027,1.03 ± 0.016,0.952 ± 0.06,0.992 ± 0.084,0.992 ± 0.047,0.974 ± 0.052,0.941 ± 0.031,0.981 ± 0.11
UniProt Q9Y6Q9 and related entries,1.05 ± 0.14,1.01 ± 0.036,1.08 ± 0.12,1.05 ± 0.12,1.01 ± 0.12,1.04 ± 0.1,1.06 ± 0.16,1.05 ± 0.09
AP3M1 (UniProt Q9Y2T2),0.967 ± 0.058,1.02 ± 0.11,1.04 ± 0.077,0.993 ± 0.046,1 ± 0.093,0.974 ± 0.052,0.895 ± 0.026,0.885 ± 0.087
THRAP3 (UniProt Q9Y2W1),0.99 ± 0.027,1.08 ± 0.054,1.18 ± 0.047,1.21 ± 0.08,1.23 ± 0.059,1.34 ± 0.077,1.43 ± 0.033,1.51 ± 0.067
MRPS2 (UniProt Q9Y399),1.11 ± 0.094,1.19 ± 0.2,1.25 ± 0.3,1.34 ± 0.38,1.37 ± 0.41,1.31 ± 0.4,1.27 ± 0.33,1.18 ± 0.3
SLC5A6 (UniProt Q9Y289),1.04 ± 0.056,1.1 ± 0.067,1.09 ± 0.07,1.03 ± 0.022,1.03 ± 0.052,0.948 ± 0.057,1.03 ± 0.042,1.01 ± 0.051
UniProt Q9Y4B6 and related entries,1.08 ± 0.11,1.08 ± 0.12,1.15 ± 0.12,1.17 ± 0.11,1.2 ± 0.15,1.2 ± 0.2,1.22 ± 0.21,1.17 ± 0.21
UniProt Q9UNA1 and related entries,1.11 ± 0.075,1.12 ± 0.18,1.06 ± 0.081,1.09 ± 0.11,1.03 ± 0.088,1.07 ± 0.16,1.05 ± 0.089,0.978 ± 0.03
ENPP4 (UniProt Q9Y6X5),0.933 ± 0.085,0.899 ± 0.061,0.976 ± 0.076,0.976 ± 0.13,0.964 ± 0.098,0.979 ± 0.11,0.917 ± 0.1,0.951 ± 0.11
DIS3 (UniProt Q9Y2L1),1.04 ± 0.025,1.05 ± 0.058,0.976 ± 0.019,0.986 ± 0.066,0.971 ± 0.054,0.972 ± 0.03,0.938 ± 0.017,0.901 ± 0.056
CHKB (UniProt Q9Y259),0.959 ± 0.13,0.937 ± 0.082,0.972 ± 0.21,1.02 ± 0.2,0.934 ± 0.13,1.03 ± 0.28,1 ± 0.097,0.965 ± 0.16
UniProt Q9Y679 and related entries,0.992 ± 0.057,0.997 ± 0.033,0.948 ± 0.029,0.968 ± 0.01,0.9583 ± 0.0062,0.969 ± 0.019,0.986 ± 0.043,0.979 ± 0.038
HEBP2 (UniProt Q9Y5Z4),0.851 ± 0.12,0.856 ± 0.12,0.856 ± 0.095,0.814 ± 0.11,0.814 ± 0.12,0.815 ± 0.085,0.815 ± 0.13,0.819 ± 0.12
UniProt Q9Y678,1.04 ± 0.013,1.06 ± 0.025,1.03 ± 0.023,1.05 ± 0.026,1.06 ± 0.038,1.02 ± 0.04,1.06 ± 0.048,1.01 ± 0.049
UniProt Q9Y394 and related entries,1.03 ± 0.059,0.984 ± 0.051,0.987 ± 0.049,0.958 ± 0.067,0.969 ± 0.07,0.926 ± 0.056,0.922 ± 0.061,0.895 ± 0.075
MINPP1 (UniProt Q9UNW1),0.976 ± 0.094,0.92 ± 0.058,0.929 ± 0.088,0.934 ± 0.071,0.923 ± 0.074,0.887 ± 0.071,0.882 ± 0.082,0.866 ± 0.041
UniProt Q9Y5Q8 and related entries,1.05 ± 0.023,1.11 ± 0.083,1.05 ± 0.062,1.08 ± 0.064,1.06 ± 0.056,1.06 ± 0.053,1.06 ± 0.014,1.02 ± 0.061
CCDC9 (UniProt Q9Y3X0),1.136 ± 0.0076,1.04 ± 0.059,1.22 ± 0.073,1.15 ± 0.034,1.163 ± 0.0089,1.18 ± 0.1,1.16 ± 0.043,1.26 ± 0.055
DYNC1LI1 (UniProt Q9Y6G9),1 ± 0.011,1.06 ± 0.043,1.1 ± 0.084,1.13 ± 0.12,1.14 ± 0.13,1.16 ± 0.16,1.17 ± 0.18,1.17 ± 0.2
UniProt Q9Y2D5 and related entries,0.925 ± 0.057,0.968 ± 0.087,0.997 ± 0.12,1.01 ± 0.12,1.09 ± 0.12,1.25 ± 0.13,1.36 ± 0.1,1.42 ± 0.11
UniProt Q9Y333,0.946 ± 0.08,0.98 ± 0.11,0.973 ± 0.091,0.939 ± 0.1,0.887 ± 0.12,0.989 ± 0.13,0.962 ± 0.089,0.963 ± 0.059
ATP6V0A2 (UniProt Q9Y487),1.09 ± 0.048,1.16 ± 0.13,1.12 ± 0.094,1.21 ± 0.17,1.18 ± 0.1,1.17 ± 0.2,1.14 ± 0.2,1.14 ± 0.16

# Whole records, quoted from the list:
# UniProt Q9Y2D5 and related entries as listed: NP40-soluble protein abundance (concentration: 0.1mM): 0.925 ± 0.057; NP40-soluble protein abundance (concentration: 0.5mM): 0.968 ± 0.087; NP40-soluble protein abundance (concentration: 1mM): 0.997 ± 0.12; NP40-soluble protein abundance (concentration: 2mM): 1.01 ± 0.12; NP40-soluble protein abundance (concentration: 4mM): 1.09 ± 0.12; NP40-soluble protein abundance (concentration: 6mM): 1.25 ± 0.13; NP40-soluble protein abundance (concentration: 8mM): 1.36 ± 0.1; NP40-soluble protein abundance (concentration: 10mM): 1.42 ± 0.11
# MINPP1 (UniProt Q9UNW1) as listed: NP40-soluble protein abundance (concentration: 0.1mM): 0.976 ± 0.094; NP40-soluble protein abundance (concentration: 0.5mM): 0.92 ± 0.058; NP40-soluble protein abundance (concentration: 1mM): 0.929 ± 0.088; NP40-soluble protein abundance (concentration: 2mM): 0.934 ± 0.071; NP40-soluble protein abundance (concentration: 4mM): 0.923 ± 0.074; NP40-soluble protein abundance (concentration: 6mM): 0.887 ± 0.071; NP40-soluble protein abundance (concentration: 8mM): 0.882 ± 0.082; NP40-soluble protein abundance (concentration: 10mM): 0.866 ± 0.041
